Measured values reported in US20080176339A1, “NEUTRAL LABELING REACTANTS AND CONJUGATES DERIVED THEREOF” (WALLAC OY, priority 2006, published 2008).

Tested on: antiserum
Test: Performance of thyroxine tracers in DELFIA based T4-assay compared to AutoDELFIA Neonatal T4 kit
Settings: for Interference with EDTA: EDTA-containing samples; for Analytical sensitivity: optimized standard curve; for Correlation to AutoDelfia Neonatal T4 assay, R: small sample panel, n = 27; for Mean Bias: versus AutoDELFIA Neonatal T4 assay
Description: The assay concentrations of the antiserum were optimized for each tracer individually, and the analytical sensitivities of the optimized standard curves were defined. The correlation between the methods were studied with a small sample panel. The on-board stability was tested up to one week in instrument-like conditions. Sensitivity to the interference of EDTA-containing samples was also studied.

Structure (SMILES) | Interference with EDTA | Analytical sensitivity | Correlation to AutoDelfia Neonatal T4 assay, R | Mean Bias
NC(=O)CN(CCN(CC(=O)O)CC(Cc1ccc(NC(=S)NCCCCCC(=O)NC(Cc2cc(I)c(Oc3cc(I)c(O)c(I)c3)c(I)c2)C(=O)O)cc1)N(CC(N)=O)CC(=O)O)CC(=O)O (centres unmarked) [Compound 13] | No | 0.42 μL/dL | R = 0.87, n = 27 | −0.7%
O=C(O)CN(CCN(CC(=O)O)CC(Cc1ccc(NC(=S)NCCCCCC(=O)NC(Cc2cc(I)c(Oc3cc(I)c(O)c(I)c3)c(I)c2)C(=O)O)cc1)N(CC(=O)O)CC(=O)O)CC(=O)O (centres unmarked) [Compound T4-DTPA] | No | 0.35 μL/dL | R = 0.94, n = 27 | −0.1%
